Data published in publication PMC12198292, “Advancing in vitro assessment of iodide uptake inhibition: integrating a novel biotransformation pretreatment step” (Archives of Toxicology, 2025).

Columns and labels:
[1] = tested on: HEK293T NIS C cells; assay: Neutral red uptake viability assay, HEK293T NIS C; details: mean±SD, 2 h exposure
[2] = tested on: FRTL-5 cells; assay: Neutral red uptake viability assay, FRTL-5; details: mean±SD, 2 h exposure

SMILES: Cc1cc(NS(=O)(=O)c2ccc(N)cc2)no1 [SMX, Sulfamethoxazole, reference compound]
- NR IC20 HEK293T NISC [1]: n.e. / n.e.
- NR IC20 FRTL-5 [2]: n.e. / n.e.
